Data from publication PMC6514849.
These are yes or no findings as the source states them, for the method shown. A result given as binding can be weak or reduced; the word gives no strength.

The chains behind the UniProt entries cited, without tags or fusion partners. Where a name states a change or a piece, a line headed by the entry shows the natural chain unless it says otherwise.
UniProt P10275: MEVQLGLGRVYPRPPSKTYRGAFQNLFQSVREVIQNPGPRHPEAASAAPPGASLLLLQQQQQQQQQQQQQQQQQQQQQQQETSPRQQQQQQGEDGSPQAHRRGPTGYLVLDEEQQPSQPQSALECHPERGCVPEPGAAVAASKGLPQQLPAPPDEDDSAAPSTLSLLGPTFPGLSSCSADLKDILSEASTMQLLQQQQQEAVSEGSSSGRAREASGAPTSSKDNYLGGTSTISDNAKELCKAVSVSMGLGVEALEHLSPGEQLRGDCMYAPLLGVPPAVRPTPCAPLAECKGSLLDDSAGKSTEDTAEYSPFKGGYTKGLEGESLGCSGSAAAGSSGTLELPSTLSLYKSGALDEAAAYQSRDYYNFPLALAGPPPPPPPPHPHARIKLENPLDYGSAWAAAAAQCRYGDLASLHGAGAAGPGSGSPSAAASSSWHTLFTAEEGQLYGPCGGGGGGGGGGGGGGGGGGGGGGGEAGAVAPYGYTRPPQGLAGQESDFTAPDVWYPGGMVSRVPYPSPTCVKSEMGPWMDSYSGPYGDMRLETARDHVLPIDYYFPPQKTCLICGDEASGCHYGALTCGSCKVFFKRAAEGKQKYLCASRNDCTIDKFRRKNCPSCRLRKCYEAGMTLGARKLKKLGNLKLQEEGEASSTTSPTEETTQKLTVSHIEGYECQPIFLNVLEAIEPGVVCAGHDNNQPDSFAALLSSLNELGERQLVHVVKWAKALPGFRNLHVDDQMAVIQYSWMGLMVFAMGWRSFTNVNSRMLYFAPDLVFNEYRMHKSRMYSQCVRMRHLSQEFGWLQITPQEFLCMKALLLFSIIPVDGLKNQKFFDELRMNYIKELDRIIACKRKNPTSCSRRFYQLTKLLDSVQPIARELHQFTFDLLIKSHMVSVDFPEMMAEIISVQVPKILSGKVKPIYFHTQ

Target: GST-tagged AR amino terminal domain (AR^NTD) (human) (UniProt P10275)
Assay: pull-down; GST pull-down: GST-tagged AR domains incubated with recombinant PBK (50 pmoles) for 2 h; PBK detected by immunoblotting with an anti-PBK antibody; AR-DBD-LBD expressed, purified and incubated ± 50 μM DHT (n = 2–5); both purified

B1: recombinant PBK (enzyme, UniProt Q96KB5 1-322)
chain: MEGISNFKTPSKLSEKKKSVLCSTPTINIPASPFMQKLGFGTGVNVYLMKRSPRGLSHSPWAVKKINPICNDHYRSVYQKRLMDEAKILKSLHHPNIVGYRAFTEANDGSLCLAMEYGGEKSLNDLIEERYKASQDPFPAAIILKVALNMARGLKYLHQEKKLLHGDIKSSNVVIKGDFETIKICDVGVSLPLDENMTVTDPEACYIGTEPWKPKEAVEENGVITDKADIFAFGLTLWEMMTLSIPHINLSNDDDDEDKTFDESDFDDEAYYAALGTRPPINMEELDESYQKVIELFSVCTNEDPKDRPSAAHIVEALETDV
  binding: binds
